# Source: PubChem BioAssay AID493014 (National Center for Advancing Translational Sciences (NCATS), 2011)
# Screen size: about 340,000 compounds; about 170 (0.05%) were called active. The shares of active, inactive and inconclusive entries below differ from those in the screen. The call rests on the fitted dose curve; in most records, active means well fitted inhibition curve with a large enough effect in the signal ratio, with a control signal flat (not every such curve was filed as active); inconclusive means small, poorly fitted or top-dose-only effect, or effect the other way, or a change in a side signal; inactive means flat fitted curve, though single readings scatter; the % refers to the signal ratio. Where the call is inconclusive, the potency comes from a doubtful curve fit.
# Assay: qHTS Assay to Find Inhibitors of Chronic Active B-Cell Receptor Signaling;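 on activity change, negative = inhibition: plate controls were basal doxycycline-induced cells for no effect and cells given 10 µM MG132 for full effect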
# Conditions: ABC-DLBCL IkBa-CBG/CBR reporter, luminescence ratio (green luciferase fused to IkBa over red control in TMD8 lymphoma cells), 4 h; activity change, negative = inhibition: at 46.1 µM (top of the series) unless noted
# In short: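 Concentration-response series (up to 46 uM) were applied to TMD8 dual-reporter cells for 4 h at 37C with doxycycline. Green/red ratio, after filter-overlap correction, defined %Activity; red signal alone was normalised to basal cells and zero luminescence.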
# Potency means the concentration at half of the fitted maximal effect.
Compound,Potency,"activity change, negative = inhibition"
COC(=O)c1cn(C(=O)c2cc(OC)c(OC)c(OC)c2)c2ccccc12,"inconclusive: 17.8 µM [falling, single point]",
Cc1ccc(CCNC(=O)CN(C)S(=O)(=O)c2ccc3c(c2)c(=O)n(C)c(=O)n3C)cc1,"inconclusive: 5.17 µM [rising, partial curve, poor fit]",
CCOC(=O)C(CCCOc1ccccc1)C(=O)OCC,,inconclusive: 24.4%
O=C(O)CC1(CC(=O)NCc2cccc(Cl)c2)CCCCC1,,inconclusive: 9.96%
Cc1ccc(C)c(C(=O)O/N=C(\N)c2ccc(Br)cc2)c1,,inconclusive: 25.2%
Cc1nn(C(C)C(=O)NNC(=S)Nc2ccc(F)cc2)c(C)c1[N+](=O)[O-] (stereo not given),,inactive: -5.37%
COc1ccc2c(c1)OC[C@H]1[C@H]2N2C(=O)c3ccccc3NC(=O)[C@@]2(C)[C@H]1c1ccccc1,,inconclusive: 4.46%
O=C1CCCc2c1nc(-c1ccc([N+](=O)[O-])cc1)n2O,"inconclusive: 35.5 µM [falling, single point]",
Cc1cccc(Oc2nc(-c3ccccn3)nc3ccccc23)c1,"inconclusive: 10 µM [falling, partial curve]",
COc1ccc(-c2nc(C)c(C(C)=O)n2O)cc1OC,"inconclusive: 6.51 µM [falling, single point]",
C[C@@H]1CC[C@H]2C(=O)N3[C@@H](CC[C@@H](C)[C@@H]3c3ccc(Br)cc3)C(=O)N2[C@H]1c1ccc(Br)cc1,,inconclusive: -6.41%
COc1ccc(OC)c(C2C=C(c3ccc(C)c(C)c3)Nc3nnnn32)c1 (stereo not given),,inactive: 0.151%
O=c1[nH]n(-c2ccc(Cl)cc2)c2ncccc12,,inconclusive: -10.4%
CN(C)/C=C\C(=C/C(=O)C(F)(F)F)Nc1ccccc1Oc1ccccc1,,inconclusive: -0.854%
CNc1ccc(S(=O)(=O)NCC(=O)NCCCc2ccccc2)cc1[N+](=O)[O-],"inconclusive: 25.1 µM [falling, single point]",
Cc1csc(SCC(=O)Nc2ccccc2C)n1,"inconclusive: 20.6 µM [falling, partial curve]",
C[C@H](CO)N1C[C@H](C)[C@@H](CN(C)S(=O)(=O)c2cn(C)cn2)Oc2ccc(NC(=O)Cn3cnnn3)cc2C1=O,,inactive: -0.8%
CCN=C1Sc2nc3ccc(OCC)cc3cc2CN1CCOC,,inconclusive: 17.9%
N#Cc1ccc(-c2ccc(C3Nc4ccccc4C(=O)N3O)o2)cc1 (stereo not given),,inconclusive: -5.05%
O=[N+]([O-])c1ccc(S(=O)(=O)NCC(c2cccnc2)N2CCc3ccccc32)cc1 (stereo not given),,inconclusive: -8.91%
Cc1nc2sc(C(c3ccccc3)N3CCN(c4ccccc4F)CC3)c(O)n2n1 (stereo not given),,inconclusive: 0.328%
Cc1ccc(C(=O)NC(C)c2ccc3c(c2)OCO3)s1 (stereo not given),,inconclusive: 3.46%
CCCS(=O)(=O)c1c(S(=O)(=O)CCC)c2c(N)cccn2c1C(=O)c1ccc(F)cc1,,inconclusive: 11.7%
COc1ccc(CCC(=O)NCCS(=O)(=O)N2CCN(c3ccccc3F)CC2)cc1,,inactive: -7.67%
CN1C(=O)S/C(=C\c2ccc(-n3cncn3)cc2)C1=O,,inactive: 10.8%

Compound,Potency,"activity change, negative = inhibition"
CN(CC(=O)Nc1ccccc1Cl)C(=O)COC(=O)Cc1c(F)cccc1Cl,,inactive: 3.9%
COCCN1CC(=O)N(c2cccc(C)c2C)C(c2ccc(Cl)cc2)C1=O (stereo not given),,inactive: -0.44%
CCOc1ccc(C2=NNC(c3cccs3)=Nc3ccc(OC)cc32)cc1OCC,"inconclusive: 16.4 µM [falling, single point]",
Cc1cccc2sc(NC(=O)c3cccc(S(=O)(=O)N4CCc5ccccc54)c3)nc12,,inconclusive: 6.38%
COc1ccc(NC(=S)N2CCNC(=O)C2CC(=O)Nc2ccc(C)cc2)cc1 (stereo not given),,inconclusive: 0.597%
CCN(CC)S(=O)(=O)c1ccc2[nH]cc(C(=O)NCCCN3CCCCC3C)c(=O)c2c1 (stereo not given),,inconclusive: 6.87%
O=C(c1cccc(S(=O)(=O)N2CCc3ccccc3C2)c1)N1CCN(c2ccccc2)CC1,,inactive: -0.14%
CNC(=O)COC(=O)c1ccc(NS(=O)(=O)c2ccc3c(c2)OCCO3)cc1,,inconclusive: 6.7%
CC(C)(C)c1ccc(-c2noc(-c3ccc4c(c3)CCO4)n2)cc1,,inactive: 18.1%
C/C(=N\NC(=O)c1c[nH]c2ccccc12)c1ccco1,"inconclusive: 18.4 µM [falling, single point]",
Cc1ccc(SC(C)c2nc(-c3ccccc3)no2)cc1 (stereo not given),,inconclusive: 3.61%
O=c1[nH]cnc2c1c(-c1ccccc1)cn2-c1ccccc1,,inconclusive: -25.8%
CCn1c(-c2cc3ccccc3cc2O)n[nH]c1=S,,inactive: 9.2%
Cc1cccc(NC(=O)c2cc(S(=O)(=O)N3CCc4ccccc43)cn2C)c1C,"inconclusive: 35.5 µM [rising, partial curve, poor fit]",
COc1cccc(C(=O)NCCCNC(=O)c2cccnc2)c1,,inactive: -26.6%
Cc1ccc(CCNC(=O)c2ccc3nc4ccc(Cl)cc4c(=O)n3c2)cc1,,inconclusive: 5.85%
COc1ccc(C2C(C(C)=O)=C(O)C(=O)N2c2nccs2)cc1OC (stereo not given),,inconclusive: -10.2%
CC(=O)c1c(C)[nH]c(C(=O)OCC(=O)NNC(=O)c2ccc([N+](=O)[O-])cc2)c1C,,inconclusive: 1.51%
O=C(Nc1ccccc1Cl)Nc1cccc2cccnc12,"inconclusive: 20 µM [falling, single point]",
O=C(COC(=O)c1ccccc1Br)Nc1ccccc1F,"inconclusive: 20 µM [falling, partial curve]",
Cc1csc(NC(=O)c2cc(-c3ccccc3)nc3ccccc23)n1,,inconclusive: 14%
COc1cccc(N2CCN(c3ncnc4c3cnn4-c3ccc(C)cc3C)CC2)c1,,inconclusive: -2.38%
Cc1c(-c2ccccc2)oc2c(C(=O)N3CCN(c4ccc([N+](=O)[O-])cc4)CC3)cccc2c1=O,,inactive: -2.64%
COc1ccc(-c2nnc(SCC(=O)c3[nH]c(C)c(C(C)=O)c3C)o2)cc1,,inconclusive: -0.424%
O=C(O)CC/C(=N\Nc1ccc(S(=O)(=O)N2CCCC2)cc1[N+](=O)[O-])c1cccs1,"inconclusive: 10.3 µM [rising, single point]",

# No new results follow: 4 of the compounds above.
Compound,Potency,"activity change, negative = inhibition"
O=C(c1cccc(S(=O)(=O)N2CCc3ccccc3C2)c1)N1CCN(c2ccccc2)CC1,,inactive: -0.14%
CNC(=O)COC(=O)c1ccc(NS(=O)(=O)c2ccc3c(c2)OCCO3)cc1,,inconclusive: 6.7%
CC(C)(C)c1ccc(-c2noc(-c3ccc4c(c3)CCO4)n2)cc1,,inactive: 18.1%
C/C(=N\NC(=O)c1c[nH]c2ccccc12)c1ccco1,"inconclusive: 18.4 µM [falling, single point]",

# Continuation:

Compound,Potency,"activity change, negative = inhibition"
COc1cc(Cn2nnc3ccccc32)cc(Br)c1O,,inconclusive: -0.0731%
C/C=C/C(=O)N1CC2(CC(c3cccc(NC(=O)COc4ccc(Cl)cc4)c3)=NO2)C[C@@H]1C(N)=O (stereo not given in full),"inconclusive: 11.2 µM [falling, partial curve, poor fit]",
COc1ccc(-c2cn3c(C)c(C(=O)NC(C)(C)C)sc3n2)cc1,"inconclusive: 22.4 µM [falling, partial curve]",
O=C(Nc1cccc(-c2nnn(CC(=O)N3CCc4ccccc4C3)n2)c1)C1CCC1,,inactive: -1.25%
O=C(CNCc1ccccn1)N1CCc2ccccc2C1,,inconclusive: 0.209%
CCc1nn(CC(=O)NCCC2=CCCCC2)c(=O)c2cc3cc(F)ccc3n12,,inactive: 10.4%
Cc1nn(-c2ccccc2)c2c1cc1c(=O)n(C)c(=O)nc-1n2-c1ccccc1F,"inconclusive: 14.1 µM [rising, partial curve, poor fit]",
O=C(NCCOc1nc(N2CCCCC2)nc(N2CCOCC2)n1)Nc1ccccc1,,inconclusive: -11.5%
O=C(/C=C/c1ccccc1Cl)NNC(=O)c1cccs1,"inconclusive: 31.6 µM [falling, partial curve]",
O=C1/C(=C/N(C(=O)c2ccco2)c2ccc(Cl)cc2)Sc2ccccc21,"inconclusive: 20.6 µM [falling, partial curve]",
Nc1cc(CN2C(=O)c3ccccc3C2=O)cc(Cl)c1O,"inconclusive: 5.17 µM [falling, partial curve]",
O=C(Cc1ccccc1)NCCCN1CCN(CCCNC(=O)Cc2ccccc2)CC1,,inconclusive: -0.414%
CC(C)C(C(=O)NCc1ccco1)N(C(=O)CNS(=O)(=O)c1ccc(Cl)cc1)C1CCCC1 (stereo not given),,inconclusive: 8.79%
Cc1ccsc1-c1nc(CN2CCCC2c2ccc(F)cc2)c(C)o1 (stereo not given),,inconclusive: -40.3%
COc1cc(/C=C2\SC(=S)N(CCC(=O)Nc3ccc(O)cc3)C2=O)cc(OC)c1OC,"inconclusive: 12.6 µM [falling, partial curve, poor fit]",
Cc1nnc2sc(SCC(=O)Nc3ccc(Cl)cc3)nn2c1=O,,inconclusive: 16%
N/C(=N\N=C\c1ccc2c(c1)OCO2)c1nonc1N,"inconclusive: 16.4 µM [falling, single point]",
O=C1C2CCCCC2C(=O)N1c1ccc(NC2CCCCC2)c([N+](=O)[O-])c1 (stereo not given),,inconclusive: 3.36%
CCOC(=O)[C@H]1[C@H]2COc3ccccc3[C@@H]2N2C(=O)c3cc(Br)ccc3NC(=O)[C@@]12C,,inconclusive: 16.3%
O=C(NCc1ccco1)/C(=C/c1cccc(C(F)(F)F)c1)c1nc2ccccc2[nH]1,,inconclusive: 21.7%
O=C(O)c1cccc(N2CCCC2=O)c1,"inconclusive: 22.4 µM [falling, single point]",
O=c1c2ccccc2ncn1/N=C/c1ccccc1,"inconclusive: 22.4 µM [falling, partial curve]",
O=C(c1ccco1)N1CCN(C(=O)c2cc3cc([N+](=O)[O-])ccc3oc2=O)CC1,,inconclusive: 3.15%
NS(=O)(=O)c1ccc(N/N=C/C=C/c2ccccc2[N+](=O)[O-])cc1,"inconclusive: 17.8 µM [falling, partial curve, poor fit]",
COc1ccc(CC(=O)NNC(=O)c2cccs2)cc1OC,,inconclusive: 9.12%
